According to the supplement of paper PMC11098740:
Some of the results follow. Single values are uncertain, as repeats are few or missing.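 The assay uses a mixed pool of 41 HAP1 clones in which 61 cancer-associated proteins bear intron-inserted fluorescent tags, and clones are distinguished by image pattern. Results are compared against DMSO-treated control wells, and the BRD4 degrader dBET6 is the positive control.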

Sequences of proteins named here, by UniProt entry; tags and fusion partners are left off.
UniProt O14980, whole entry: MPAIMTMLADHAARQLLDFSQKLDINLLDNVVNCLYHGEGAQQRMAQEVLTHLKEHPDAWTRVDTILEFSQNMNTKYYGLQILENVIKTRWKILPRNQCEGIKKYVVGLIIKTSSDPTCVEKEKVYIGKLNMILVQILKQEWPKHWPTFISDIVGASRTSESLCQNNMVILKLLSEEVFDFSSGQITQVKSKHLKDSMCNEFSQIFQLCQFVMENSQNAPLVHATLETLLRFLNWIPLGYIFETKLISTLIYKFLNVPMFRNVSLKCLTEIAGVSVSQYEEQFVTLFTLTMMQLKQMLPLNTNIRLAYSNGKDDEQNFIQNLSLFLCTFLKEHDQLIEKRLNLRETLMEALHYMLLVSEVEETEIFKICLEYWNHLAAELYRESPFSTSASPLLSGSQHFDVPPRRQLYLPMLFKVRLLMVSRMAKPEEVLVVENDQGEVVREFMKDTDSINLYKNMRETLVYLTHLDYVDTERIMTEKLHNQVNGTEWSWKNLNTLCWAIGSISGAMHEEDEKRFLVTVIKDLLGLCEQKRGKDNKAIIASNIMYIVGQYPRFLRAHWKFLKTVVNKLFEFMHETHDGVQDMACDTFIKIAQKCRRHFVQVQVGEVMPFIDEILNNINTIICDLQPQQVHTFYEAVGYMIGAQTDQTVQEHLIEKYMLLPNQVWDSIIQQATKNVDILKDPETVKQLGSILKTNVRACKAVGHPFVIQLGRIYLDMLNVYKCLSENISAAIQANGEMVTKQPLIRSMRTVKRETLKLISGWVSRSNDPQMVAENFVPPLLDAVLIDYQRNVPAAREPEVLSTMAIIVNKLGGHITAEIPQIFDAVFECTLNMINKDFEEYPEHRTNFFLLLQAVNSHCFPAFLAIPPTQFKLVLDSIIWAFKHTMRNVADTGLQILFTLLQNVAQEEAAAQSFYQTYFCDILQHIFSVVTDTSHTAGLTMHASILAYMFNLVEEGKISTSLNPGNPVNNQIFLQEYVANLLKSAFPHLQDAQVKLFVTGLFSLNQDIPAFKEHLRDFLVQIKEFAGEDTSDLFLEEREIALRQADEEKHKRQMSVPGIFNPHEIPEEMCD

target: XPO1 (intron 15 mScarlet tag, HAP1) (UniProt O14980); assay: XPO1 fluorescence intensity change vs DMSO (log2 fold change); higher = more XPO1 protein; details: 6 h

Compound	XPO1 fluorescence intensity change (log2)
O=C(O)C(=O)O.[NH-][C@@H]1CCCC[C@H]1[NH-].[Pt+2] [Oxaliplatin] (20 µM)	0.205
COc1cc2nc(N3CCN(C(=O)C4CCCO4)CC3)nc(N)c2cc1OC (centres undefined) [Terazosin] (10 µM)	0.21
CCCCN(CCCC)CCC(O)c1cc2c(Cl)cc(Cl)cc2c2cc(C(F)(F)F)ccc12 (centres undefined) [Halofantrine] (10 µM)	0.0375
NC(=O)c1ncn([C@@H]2O[C@H](CO)[C@@H](O)[C@H]2O)n1 [Ribavirin] (10 µM)	-0.105
O=C1OCCN1/N=C/c1ccc([N+](=O)[O-])o1 [Furazolidone] (10 µM)	0.104
NCCNc1ccc(NCCN)c2c1C(=O)c1ccncc1C2=O [Pixantrone] (10 µM)	-0.0284
C[N+](C)(C)CCOC(N)=O [Carbachol] (9.99977 µM)	0.228
COc1cnc(NS(=O)(=O)c2ccc(N)cc2)nc1 [Sulfameter] (10 µM)	0.135
CC(C)CN(C[C@@H](O)[C@H](Cc1ccccc1)NC(=O)O[C@H]1CCOC1)S(=O)(=O)c1ccc(N)cc1 [Amprenavir] (10 µM)	-0.192
CC(=O)S[C@@H]1CC2=CC(=O)CC[C@]2(C)[C@H]2CC[C@@]3(C)[C@@H](CC[C@@]34CCC(=O)O4)[C@H]12 [Spironolactone] (10.00018646 µM)	0.165
CC[C@]1(O)C[C@@H]2CN(CCc3c([nH]c4ccccc34)[C@@](C(=O)OC)(c3cc4c(cc3OC)N(C)[C@H]3[C@@](O)(C(=O)OC)[C@H](OC(C)=O)[C@]5(CC)C=CCN6CC[C@]43[C@@H]65)C2)C1 [Vinblastine] (20 µM)	0.211
NNc1nncc2ccccc12 [Hydralazine] (10 µM)	-0.0208
CC(C)C[C@H](NC(=O)CNC(=O)c1cc(Cl)ccc1Cl)B(O)O [Ixazomib] (1 µM)	-0.0762
NC(=O)c1cn(Cc2c(F)cccc2F)nn1 [Rufinamide] (10 µM)	0.0406
CCCCC(F)(F)[C@@]1(O)CC[C@H]2[C@@H](CC(=O)[C@@H]2CCCCCCC(=O)O)O1 [Lubiprostone] (10 µM)	0.076
CC1(C)O[C@@H]2[C@@H](CO[C@@]3(COS(N)(=O)=O)OC(C)(C)O[C@@H]23)O1 [Topiramate] (10 µM)	-0.228
CN1CCC(=C2c3ccccc3CCc3cccnc32)CC1 [Azatadine] (17.993 µM)	0.0365
CC1=C(/C=C/C(C)=C\C=C\C(C)=C\C(=O)O)C(C)(C)CCC1 [Alitretinoin] (20 µM)	0.0888
CNC(=O)c1cc(Oc2ccc(NC(=O)Nc3ccc(Cl)c(C(F)(F)F)c3)cc2)ccn1 [Sorafenib] (12.21 µM)	0.0168
Cc1oncc1C(=O)Nc1ccc(C(F)(F)F)cc1 [Leflunomide] (10 µM)	-0.0288

Compound	XPO1 fluorescence intensity change (log2)
Clc1ccc(C(c2ccc(Cl)cc2)N2CCNCC2)cc1 (10 µM)	-0.154
CC(C)[C@@H]1NC(=O)[C@H](CCCCN)NC(=O)[C@@H](Cc2c[nH]c3ccccc23)NC(=O)[C@H](Cc2ccc(O)cc2)NC(=O)[C@@H](NC(=O)[C@H](N)Cc2ccc3ccccc3c2)CSSC[C@@H](C(=O)N[C@H](C(N)=O)[C@@H](C)O)NC1=O [Lanreotide Acetate] (20 µM)	-0.166
CC(=O)NO [Acetohydroxamic Acid] (10 µM)	-0.0404
Nc1nc(NC2CC2)c2ncn([C@H]3C=C[C@@H](CO)C3)c2n1 [Abacavir] (10 µM)	-0.135
Cc1cc(C)cc(OCC2CNC(=O)O2)c1 (centres undefined) [Metaxalone] (10 µM)	0.0988
CCN(CC)Cc1cc(Nc2ccnc3cc(Cl)ccc23)ccc1O [Amodiaquine] (10.0001 µM)	-0.194
CC(C)NC(=N)NC(=N)Nc1ccc(Cl)cc1 [Proguanil] (9.99926 µM)	0.0942
COc1cc2c(Oc3ccc4[nH]c(C)cc4c3F)ncnc2cc1OCCCN1CCCC1 [Cediranib] (10 µM)	0.0628
C[C@]12C=CC(=O)C=C1CC[C@@H]1[C@@H]2[C@@H](O)C[C@@]2(C)[C@H]1CC[C@]2(O)C(=O)CO [Prednisolone] (10 µM)	-0.0599
CCCCc1oc2ccc(NS(C)(=O)=O)cc2c1C(=O)c1ccc(OCCCN(CCCC)CCCC)cc1 [Dronedarone] (10 µM)	0.166
N[C@@H](CCC(=O)N[C@@H](CSN=O)C(=O)NCC(=O)O)C(=O)O [Nitrosoglutathione] (10 µM)	0.12
Cc1sc2c(c1C)C(c1ccc(Cl)cc1)=N[C@@H](CC(=O)NCCCCCCCCNC(=O)COc1cccc3c1C(=O)N(C1CCC(=O)NC1=O)C3=O)c1nnc(C)n1-2 (some centres undefined) (0.1 µM)	0.154
CC(=O)O[C@H]1C(=O)[C@@]2(C)[C@H]([C@H](OC(=O)c3ccccc3)[C@]3(O)C[C@H](OC(=O)[C@H](O)[C@@H](NC(=O)c4ccccc4)c4ccccc4)C(C)=C1C3(C)C)[C@]1(OC(C)=O)CO[C@@H]1C[C@@H]2O [Paclitaxel] (0.065394 µM)	0.0406
CNC1(C)C2CCC(C2)C1(C)C (centres undefined) [Mecamylamine] (12.2 µM)	0.062
CC(C)(Sc1cc(C(C)(C)C)c(O)c(C(C)(C)C)c1)Sc1cc(C(C)(C)C)c(O)c(C(C)(C)C)c1 [Probucol] (10 µM)	0.0161
CN(C)C(=O)C(CCN1CCC(O)(c2ccc(Cl)cc2)CC1)(c1ccccc1)c1ccccc1 [Loperamide] (10.00034001 µM)	0.137
CCN1CC(CCN2CCOCC2)C(c2ccccc2)(c2ccccc2)C1=O (centres undefined) [Doxapram] (10 µM)	-0.135
Cc1ncc([N+](=O)[O-])n1CCO [Metronidazole] (10 µM)	-0.175
CCN(CC)C(=O)N1CCN(C)CC1 [Diethylcarbamazine] (9.99954 µM)	0.0443

At a glance, part of the list above:
Compound	XPO1 fluorescence intensity change (log2)
Clc1ccc(C(c2ccc(Cl)cc2)N2CCNCC2)cc1 (10 µM)	-0.154
CC(C)[C@@H]1NC(=O)[C@H](CCCCN)NC(=O)[C@@H](Cc2c[nH]c3ccccc23)NC(=O)[C@H](Cc2ccc(O)cc2)NC(=O)[C@@H](NC(=O)[C@H](N)Cc2ccc3ccccc3c2)CSSC[C@@H](C(=O)N[C@H](C(N)=O)[C@@H](C)O)NC1=O [Lanreotide Acetate] (20 µM)	-0.166
